Assay results: article PMC12043106, “Insight into antistaphylococcal effect of chlorinated 1-hydroxynaphthalene-2-carboxanilides” (ADMET & DMPK, 2025)

Assay: in vitro
Method: Cytotoxicity of the compounds was determined using an LDH assay kit (Roche, Mannheim, Germany) as described previously. Human monocytic leukemia THP-1 cells (European Collection of Cell Cultures, Salisbury, UK) were exposed for 24 h at 37 °C to various compound concentrations ranging from 0.37 to 30 μM in RPMI 1640 medium. For LDH assays, cells were seeded into 96-well plates (5×10^4 cells/well in 100 μL of culture medium) in triplicate in serum-free RPMI 1640 medium and measurements were taken 24 h after the treatment with the compounds. The maximum concentration of DMSO (Sigma) in the assays never exceeded 0.1 %. […] The median lethal dose values, LC50, were deduced through the production of a dose-response curve. All data from three independent experiments were evaluated using GraphPad Prism 5.00 software.

O=C(O)c1cn(C2CC2)c2cc(N3CCNCC3)c(F)cc2c1=O [CPX, ciprofloxacin, reference compound]
CC50 at 24 h: 700 ± 90 nM
